Source: patent publication US20040002119A1, “Method of predicting cell-based assay results using binding profiles” (priority 2002, published 2004)
At least one structure is not confirmed: it was looked up by name or label, or the drawing left a doubt.

Experiments:
[1] = tested on: MCF-7 breast cancer cells; assay: MCF-7 cell proliferation assay ([3H]-thymidine incorporation); format: cell-based, human; settings: CPM, FIG. 11
Procedure: MCF-7 potency=(pEC50 or pIC50)(% cpm max or % cpm min).
Cell proliferation of MCF-7 breast cancer cells was determined by [^3H]-thymidine incorporation. Compounds were tested for their potential to either stimulate MCF-7 proliferation or inhibit proliferation. An EC50 or IC50 was determined for each compound tested.

[2] = tested on: human endometrial cells (Ishikawa cell line); assay: Ishikawa endometrial cell stimulation assay (intrinsic alkaline phosphatase); format: cell-based; settings: absorbance at 405 nm minus blank; FIG. 13
Procedure: The stimulation of human endometrial cells (Ishikawa cell line) was determined by increases in intrinsic alkaline phosphatase activity. […] The % Emax is defined as 100×(spectrophotometric reading at 405 nm with compound-blank)/(spectrophotometric reading at 405 nm estradiol-blank).

C[C@]12CC[C@@H]3c4ccc(O)cc4CC[C@H]3[C@@H]1CC[C@@H]2O [estradiol]
MCF-7 cell proliferation with increasing compound concentration [1]: cell proliferation increased | stimulation of intrinsic alkaline phosphatase in Ishikawa cells [2]: stimulates this activity
